Results: patent publication US20190169250A1
No constants are given. Whether binding was seen depends on the method and setting. Some binding calls cover weakened binding; strength is not graded here. Where a sequence is shown, tags or fusion partners need not be part of it.

The chains behind the UniProt entries cited, without tags or fusion partners. Residues count along the entry.
11A12, a recombinantly expressed ED-A (P02751, residues 1632-1903): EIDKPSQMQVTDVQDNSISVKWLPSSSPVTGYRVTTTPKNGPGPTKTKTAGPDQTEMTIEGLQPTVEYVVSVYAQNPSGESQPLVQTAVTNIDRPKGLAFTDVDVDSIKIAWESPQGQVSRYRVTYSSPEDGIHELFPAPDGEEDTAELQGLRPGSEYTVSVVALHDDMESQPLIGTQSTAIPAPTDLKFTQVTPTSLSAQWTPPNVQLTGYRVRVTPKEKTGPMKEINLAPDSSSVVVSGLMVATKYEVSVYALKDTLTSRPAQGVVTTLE
Recombinant EDA-domain (P02751, residues 1722-1811): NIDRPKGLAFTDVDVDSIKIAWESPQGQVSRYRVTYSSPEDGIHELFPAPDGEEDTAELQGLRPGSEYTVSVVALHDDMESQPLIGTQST

Columns and labels:
Recombinant EDA-domain [1] = target: Recombinant EDA-domain (UniProt P02751); test: ELISA, ED-A coated wells, protein A-HRP detection
[2] = target: 11A12, a recombinantly expressed ED-A (UniProt P02751); test: SPR (Biacore 3000), 11A12 coated chip
[3] = target: 11A12, a recombinantly expressed ED-A (UniProt P02751); test: SPR (Biacore), ED-A coated chip
Recombinant EDA-domain [4] = target: Recombinant EDA-domain (UniProt P02751); test: ELISA on immobilized recombinant EDA-domain

Measured: binding

B1: muIL22-F8 fusion protein (protein)
chain: LPVNTRCKLEVSNFQQPYIVNRTFMLAKEASLADNNTDVRLIGEKLFRGVSAKDQCYLMKQVLNFTLEDVLLPQSDRFQPYMQEVVPFLTKLSNQLSSCHISGDDQNIQKNVRRLKETVKKLGESGEIKAIGELDLLFMSLRNACVGGGGSGGGGSGGGGSEVQLLESGGGLVQPGGSLRLSCAASGFTFSLFTMSWVRQAPGKGLEWVSAISGSGGSTYYADSVKGRFTISRDNSKNTLYLQMNSLRAEDTAVYYCAKSTHLYLFDYWGQGTLVTVSSGGSGGEIVLTQSPGTLSLSPGERATLSCRASQSVSMPFLAWYQQKPGQAPRLLIYGASSRATGIPDRFSGSGSGTDFTLTISRLEPEDFAVYYCQQMRGRPPTFGQGTKVEIK
binds: Recombinant EDA-domain [1] | [2] | [3] | Recombinant EDA-domain [4]

B2: F8-muIL22 fusion protein (protein)
chain: EVQLLESGGGLVQPGGSLRLSCAASGFTFSLFTMSWVRQAPGKGLEWVSAISGSGGSTYYADSVKGRFTISRDNSKNTLYLQMNSLRAEDTAVYYCAKSTHLYLFDYWGQGTLVTVSSGGSGGEIVLTQSPGTLSLSPGERATLSCRASQSVSMPFLAWYQQKPGQAPRLLIYGASSRATGIPDRFSGSGSGTDFTLTISRLEPEDFAVYYCQQMRGRPPTFGQGTKVEIKGGGGSGGGGSGGGGSLPVNTRCKLEVSNFQQPYIVNRTFMLAKEASLADNNTDVRLIGEKLFRGVSAKDQCYLMKQVLNFTLEDVLLPQSDRFQPYMQEVVPFLTKLSNQLSSCHISGDDQNIQKNVRRLKETVKKLGESGEIKAIGELDLLFMSLRNACV
binds: Recombinant EDA-domain [1] | [2] | [3] | Recombinant EDA-domain [4]
